Results are given in words; binding and its absence hold for the method and conditions named. Some entries that bind do so weakly or less than the wild type.
T1: TIM-3 (T cell immunoglobulin and mucin-domain containing-3) (human) (UniProt Q8TDQ0)
T1 sequence (looked up): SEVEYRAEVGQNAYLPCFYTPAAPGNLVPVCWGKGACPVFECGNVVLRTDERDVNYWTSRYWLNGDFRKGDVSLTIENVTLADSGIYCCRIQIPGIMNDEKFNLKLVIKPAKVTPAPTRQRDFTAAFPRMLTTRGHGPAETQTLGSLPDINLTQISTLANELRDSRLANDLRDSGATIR

Amino acid sequences for entries named in this document (tags omitted). Residues count along the entry.
UniProt Q9NPH3, residues 21-359: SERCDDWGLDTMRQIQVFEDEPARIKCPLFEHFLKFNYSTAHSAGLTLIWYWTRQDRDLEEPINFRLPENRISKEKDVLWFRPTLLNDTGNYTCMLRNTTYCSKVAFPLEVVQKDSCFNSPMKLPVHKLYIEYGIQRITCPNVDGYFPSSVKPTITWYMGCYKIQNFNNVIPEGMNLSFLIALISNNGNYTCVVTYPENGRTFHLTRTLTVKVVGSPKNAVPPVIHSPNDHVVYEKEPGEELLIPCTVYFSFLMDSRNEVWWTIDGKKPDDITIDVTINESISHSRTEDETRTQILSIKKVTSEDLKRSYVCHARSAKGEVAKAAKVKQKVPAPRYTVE


Target: T1, TIM-3 (T cell immunoglobulin and mucin-domain containing-3) (human)
Experiment: Fab clones selected from llama immune libraries

Row | Binder | binding
1 | Fab clone 1A11 (Fab, V domains shown, Llama-derived Fab from an immune library; the constant domains of the Fab are not) VH: EVQLVESGGGLVQPGGSLRLSCAASGFTFSSYAMSWVRQAPGKGPEWVSHINSGGGNTKYADSVKGRFTISRDNAKNTLYLQMNTLKPEDTAVYYCAKDVSGGYYGTYALDAWGQGTQVVVSS VL: SYELTQSPSVSVALKQTAKITCGGDNIGSKSAQWYQQKPGQAPVLVIYADSRRPSGIPERFSGSNSGNTATLTISGAQAEDEADYYCQVWDSSAAVFGGGTHLTVL | binds
2 | Fab clone 2A2 (Fab, V domains shown, Llama-derived Fab from an immune library; the constant domains of the Fab are not) VH: EVQVQESGGGLVQPGGSLRLSCAASGFTFSSYAMSWVRQAPGKGLEWVSDINSGGGSTVYTDSVKGRFTISRDNAKNTLYLQMNSLKPDDTAVYYCATGGSYYSYRLFDYWGQGTQVTVSS VL: DIQMTQSPSSVIVSAGEKVTINCKSSQSVLDSSNQKNYLAWYQQRLGQSPRLLIYWASTRESGVPDRFSGSGSTTDFTLTISSFQPEDAAVYYCQQGYSVPVTFGQGTKVELKR | binds
3 | Fab clone 2A6 (Fab, V domains shown, Llama-derived Fab from an immune library; the constant domains of the Fab are not) VH: QVQLVESGGGLVQPGGSLRLSCAASGFTFSNYWMYWVRQAPGKGLEWVSTINTNGAITLYADNVKDRFTVSRDNAKNTLYLQMNSLKSEDTAVYYCAKVKLSGYPHPYYAMDYWGKGTLVTVSS VL: NFMLTQPPSLSGSLGQSARLTCTLGSGNSIGAHTISWYQQKAGSPPRYLLNYYSDSSNHQASGVPSRFSGSKDDSTNAGLLLISGLQPEDEADYYCAAGDGSGTVFGGGTKLTVL | binds
4 | Fab clone 2A9 (Fab, V domains shown, Llama-derived Fab from an immune library; the constant domains of the Fab are not) VH: QVQLVESGPGLVKPSQTLSLTCTVSGGSITTSDDAWSWIRQPAGKGLEWMGVIAYDGSTRYSPSLQSRTSISRDTSKNQFSLQLSSVTPEDTAVYYCARTKGVGGTWALDAWGQGTLVTVSS VL: EIVLTQSPSSVTASVGEKVTINCKSSQSVLSSSNQKNYLSWYQQRLGQSPRLLITWASTRESGVPDRFSGSGSTTDFTLTISSFQPEDAAVYYCQQGYGAPLTFGQGTKVELKR | binds
5 | Fab clone 2B6 (Fab, V domains shown, Llama-derived Fab from an immune library; the constant domains of the Fab are not) VH: QVQLVESGGGLVQPGGSLRLSCAASGFAFSSYDMSWVRQAPGKGLEWVSTINSGGGSTNYADSMKGRFTISRDNAKNTVYLQMNSLKPEDTAVYYCAARSPYYTRVPLYDYWGQGTQVTVSS VL: QAVVTQEPSLSVSLGGTVTLTCGLRSGSVTTSNYPGWFKQTPGQAPRTLIFGASSRHSGVPSRYSGSISGNKAALTITGAEPEDEADYYCALNKGTYTDVFGGGTKLTVL | binds
6 | Fab clone 2B9 (Fab, V domains shown, Llama-derived Fab from an immune library; the constant domains of the Fab are not) VH: EVQLQESGPGLVKPSQTLSLTCTVSGASVTTRYNYWSWIRQPPGKGLEWMGAITYSGSTYYSPSLKSRTSISRDTSKNQFTLQLSSVTPEDTAVYYCATEGSSSTGVSRYSFGSWGQGTQVTVSS VL: ATMLTQSPGSLSVVPGESASISCKASQSLTHTDGTTALYWLQQKPGQRPQLLIYEVSVRASGVPDRFTGSGSGSDFTLKINGVKAEDAGVYYCAQVAYYPTFGQGTKVELK | binds
7 | Fab clone 2B10 (Fab, V domains shown, Llama-derived Fab from an immune library; the constant domains of the Fab are not; also called 2610; 21310) VH: QVQLQESGPGLVKPSQTLSLTCTVSGGSITTNRYLWTWIRQTPGKGLEWVGAIAYSGRTYYSPSLKSRTSISRDTSKNQFTLQLSSVTPEDTGVYYCAHFTGWGGYYWGQGTQVTVSS VL: QSALTQPPSVSGTLGKTVTISCAGTSSDIGGYNSVSWYQQLPGTAPKLLIYEVNKRASGIPDRFSGSKSGNTASLSISGLQSEDEADYYCASYRSANNVVFGGGTKLTVL | binds
8 | Fab clone 2C6 (Fab, V domains shown, Llama-derived Fab from an immune library; the constant domains of the Fab are not) VH: QVQLVESGGGLVQPGGSLRLSCAASGFAFSSYDMSWVRQAPGKGPEWVSTINSGGGSTSYADSVKGRFTISRDNAKNTVYLQMNSLKPEDTAVYYCAARSLYYTRVPMYDYWGQGTQVTVSK VL: QAVVTQEPSLSVSPGGTVTLTCGLSSGSVTTNNYPGWFQQTPGQAPRTLIYSTSSRHSGVPSRFSGSISGNKAALTITGAQPEDEADYYCALDIGSYTAVFGGGTHLTVL | binds
9 | Fab clone 2D11 (Fab, V domains shown) VH: EVQLVQPGAELRNPGASVKVSCKASGYTFTMYYIDWVRQAPGQGLEWMGRIDPEDGGTKYAQKFQGRVTFTADTSTSTAYVELSSLRSEDTAVYYCARIPNGGSYYYTPYDYDYWGQGTQVTVSS VL: QAVVTQEPSLSVSPGGTVTLTCGLTSGSVTSSNYPGWYRQTPGQAPRPLIYNTNSRHPGVPSRYSGSISENKATLTITGAEPEDEADYYCALHKGSYTAVFGGGTHLTVL | binds
10 | Fab clone 2D6 (Fab, V domains shown, Llama-derived Fab from an immune library; the constant domains of the Fab are not) VH: QVQLQESGGGLVQPGGSLTLSCAASGFFFSSYAMSWVRQAPGKGLEWVSSISAGGGTSYYADSVKGRFTISRDSAKNTLVLQMNSLKPEDTAVYYCAKKRQNFWSEGYDSWGQGTQVTVSS VL: HSAVTQPPSVSGSPGKAVTISCVGSSSDVGYGDYVSWYQQLPGMAPKLLIYDVEKRASGIPDRFSGSKSGNTASLTISGLQSEDEADYYCASYRSDSNFVFGGGTHLAVL | binds
11 | Fab clone 2E2 (Fab, V domains shown, Llama-derived Fab from an immune library; the constant domains of the Fab are not) VH: QLQLVESGGGLVQPGGSLRLSCAASGFTFGSYDMSWVRQAPGKGPEWVSRITSGGGSTYADSVKGRFTISRDNAKNTLSLQMNSLKSEDTAVYYCAAGQYSDGYYPYDYWGQGTQVTVSS VL: DIVMTQSPSSLSASLGDRVTITCQASQSISSYLAWYQQKPGQGPKLLIYGASRLEPGVPSRFSGSGSGTSFTLTISGVEAEDLATYYCLQDYSWPYSFGSGTRLEIK | binds
12 | Fab clone 2E7 (Fab, V domains shown, Llama-derived Fab from an immune library; the constant domains of the Fab are not) VH: ELQVVESGGGLVQPGGSLRLSCAASGFTFGSYDMSWHRQAPRKGPEWVSTISAGGGRTYYADSVKGRFTISRDNAKNTLYLQMNSLKPEDTAVYFCTKIVLDSWGQGTQVTVSS VL: DVVLTQTPGSLSVVPGESASISCKASQSLIHIDGKTYLYWLLQKPGRRPELLIYQVSNHESGVPDRFTGSGSGTDFTLKISGVKAEDAGVYYCAQATYYPSFGSGTRLEIK | binds
13 | Fab clone 2E9 (Fab, V domains shown, Llama-derived Fab from an immune library; the constant domains of the Fab are not) VH: EVQLVESGGGLVQPGGSLRLSCAASGFTFDDYTMSWVRQVPGKGLEWISGISGNGGRTDYVEPIEGRFTISRDNAKNTLYLQMNSLKSEDTAVYYCAKTSPQSLDYWGQGTQVTVSS VL: DIVMTQSPSSVTASVGEKVTINCKSSQSVVSGSNQKSYLNWYQQRPGQPPRLLIYYASTQESGIPDRFSGSGSTTDFTLTISSVQPEDAAVYYCQQAYSAPYNFGSGTRLEIK | binds
14 | Fab clone 2F8 (Fab, V domains shown, Llama-derived Fab from an immune library; the constant domains of the Fab are not) VH: EVQLVESGGGLVQPGGSLRLSCAASGFTFGSYDMSWVRQAPGKGPEWVSTISAGGGRTYYADSVKDRFTISRDNAKNTLYLQMNSLKPEDTAVYYCAKVVIDYWGQGTQVTVSS VL: DVVLTQTPGSLSVVPGESASISCKASQSLVHTDGKTYVYWLLQKPGQRPHLLIYQVSNHESGVPDRFTGSGSGTDFTLKISGVKAEDAGVYYCAQATYYPSFGSGTRLEIK | binds
15 | Fab clone 2G6 (Fab, V domains shown, Llama-derived Fab from an immune library; the constant domains of the Fab are not) VH: EVQLVESGGGLVQPGGSLRLSCAASGFTFSSYSMSWVRQAPGKGPEWVSGINTSGGTTSYAASVKGRFTVSRDNAKNTLSLQMNSLEPEDTAVYYCVKHIRWSGSNYYYYGMDYWGKGTLVTVSS VL: QAVLTQPPSVSGSPGQRFTISCTGSNRNIGNNYVNWYQQLPGTAPKLLIYSDNLRTSGVPARFSASKSGTTSSLTISGLQAEDEAVYYCSSWDDSLSGAVFGGGTHLTVL | binds

Target: IL1RAP (Interleukin 1 receptor accessory protein) (human) (UniProt Q9NPH3)
Experiment: Fab clones selected from llama immune libraries

Row | Binder | binding
16 | Fab clone 1F10 (Fab, V domains shown) VH: QVQLVESGGGLVQPGGSLRLSCAASGFIFINYGMHWVRQAPGKGLEWVSAVNSGGASTDYADSVKGRFTISRDDAKNTLYLQMNSLKSEDTAVYYCVKGWFYGIHYWGKGTLVTVSS VL: QAVLTQLPSVSGSPGQKITISCTGSSSNIGGGYSVQWFQHLPGTPPKLLIYGNSNRASGVPDRFSGSKSGSSASLTITGLQAEDEADYYCESYDDWLKGRGFGGGSKLTVL | binds
17 | Fab clone 1C1 (Fab, V domains shown) VH: QVQLVESGPGLVKPSQTLSLTCTVSGGSITTNYYSWIWIRQPPGKGLEWMGASVYSGSTFYSPSLKNTSISKDTAQNQFTLQLRSVTPEDTAVYYCARASSAHWGSSFISIDYWGQGTQVTVSS VL: QSVLTQPPSVSGSPGKTVTISCAGTSSDVGYGNYVSWYQQLPGMAPKLLIYDVDIRASGIADRFSGSKSGNTASLTISGLQSEDEADYYCASYRTNNNAVFGGGTHLTVL | binds
